From patent US5208217A (Mount Sinai School of Medicine of The City University of …, priority 1991, dated 1993) come the findings set out here.

*: point of attachment. Mts = Cc1cc(C)c(S(=O)(=O)*)c(C)c1; Boc = CC(C)(C)OC(=O)*; Bn = c1ccc(C*)cc1; NHNH2 = NN*

A short description of one data set: general procedure: solution-phase peptide synthesis; azide fragment condensation; p-nitrophenyl active esters; N,N'-dicyclohexylcarbo. The note with it: coupling step.
As to “Boc-Asn-Tyr(Bzl)-Cys(PMB)-Asn.cndot.OBzl”, the step yield is on record as 64%.

The substance “Boc-Glu(OBzl)-Asn-Tyr(Bzl)-Cys(PMB)-Asn.cndot.OBzl” returned a step yield of 81%.

Regarding “Boc-Gly-Val-Cys(PMB)-Ser(Bzl)-Leu-Trp(Mts)-Gln-Leu-Glu(OBzl)-Asn-Tyr(Bzl)-Cys(PMB)-Asn.cndot.OBzl”, the step yield is given as 82%.

Regarding Boc-Leu-Trp(Mts)-Gln-Leu.cndot.OMe, the step yield turned out to be 71%.

Substance “Boc-Ser(Bzl)-Leu-Trp(Mts)-Gln-Leu-Glu(OBzl)-Asn-Tyr(Bzl)-Cys(PMB)-Asn.cndot.OBzl” registered a step yield of 38%.

Take “Boc-Ser(Bzl)-Leu-Trp(Mts)-Gln-Leu.cndot.OMe”: the step yield worked out at 85%.

The substance “Z-Gly-Ile-Val-Glu(OBu^t)-Gln-Cys(PMB)-Cys(PMB)-Ala-Gly-Val-Cys(PMB)-Ser(Bzl)-Leu-Trp(Mts)-Gln-Leu-Glu(OBzl)-Asn-Tyr(Bzl)-Cys(PMB)-Asn.cndot.OBzl” gave a step yield of 76%.

Staying with this data set, now noted: late stage modification step.
Boc-S(Bn)LW(Mts)QL-NHNH2 came in with a step yield of 94%.
